From PMC11057878
Results are given in words; binding and its absence hold for the method and conditions named. In cells and extracts the contact can be indirect. Some results given as binding are weak or reduced against the parent protein; the word gives no strength.

Assays:
Test in all cases: co-IP; HEK293T cells co-transfected with Skor and Lhx expression plasmids (pCS2+), lysed 24 h later in 10 mM Tris pH 7.4, 150 mM NaCl, 0.5% NP40; antibody (anti-HA, anti-Myc or anti-Flag) on Dynabeads protein G, 4°C for 2 h, five washes with lysis buffer; immunoblot
Lhx1a (zebrafish) = target: T1, Lhx1a (zebrafish) (UniProt Q90476)
T1 sequence: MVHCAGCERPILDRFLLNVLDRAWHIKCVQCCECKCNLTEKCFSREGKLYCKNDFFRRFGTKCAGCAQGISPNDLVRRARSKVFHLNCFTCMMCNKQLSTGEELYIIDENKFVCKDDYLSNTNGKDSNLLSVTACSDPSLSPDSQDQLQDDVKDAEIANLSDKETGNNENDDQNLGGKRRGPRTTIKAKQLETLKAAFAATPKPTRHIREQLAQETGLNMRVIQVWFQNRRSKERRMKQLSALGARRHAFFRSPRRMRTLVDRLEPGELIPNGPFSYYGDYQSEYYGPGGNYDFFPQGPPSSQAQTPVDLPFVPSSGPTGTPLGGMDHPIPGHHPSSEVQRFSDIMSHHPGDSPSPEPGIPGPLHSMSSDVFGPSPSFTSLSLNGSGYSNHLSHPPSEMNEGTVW

Lhx1b (zebrafish) = target: T2, Lhx1b (zebrafish) (UniProt O13106)
T2 sequence: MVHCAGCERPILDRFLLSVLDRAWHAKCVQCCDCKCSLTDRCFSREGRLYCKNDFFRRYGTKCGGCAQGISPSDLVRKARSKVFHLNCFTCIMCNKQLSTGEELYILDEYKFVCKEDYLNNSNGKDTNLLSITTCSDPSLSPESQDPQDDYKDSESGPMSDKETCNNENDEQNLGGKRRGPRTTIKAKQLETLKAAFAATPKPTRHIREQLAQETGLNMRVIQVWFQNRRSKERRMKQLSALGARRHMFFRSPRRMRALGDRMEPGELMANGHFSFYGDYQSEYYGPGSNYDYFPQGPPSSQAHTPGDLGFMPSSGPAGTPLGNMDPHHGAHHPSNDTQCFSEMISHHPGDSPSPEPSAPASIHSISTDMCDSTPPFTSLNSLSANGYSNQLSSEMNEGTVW

Lhx5 (zebrafish) = target: T3, Lhx5 (zebrafish) (UniProt P52889)
T3 sequence: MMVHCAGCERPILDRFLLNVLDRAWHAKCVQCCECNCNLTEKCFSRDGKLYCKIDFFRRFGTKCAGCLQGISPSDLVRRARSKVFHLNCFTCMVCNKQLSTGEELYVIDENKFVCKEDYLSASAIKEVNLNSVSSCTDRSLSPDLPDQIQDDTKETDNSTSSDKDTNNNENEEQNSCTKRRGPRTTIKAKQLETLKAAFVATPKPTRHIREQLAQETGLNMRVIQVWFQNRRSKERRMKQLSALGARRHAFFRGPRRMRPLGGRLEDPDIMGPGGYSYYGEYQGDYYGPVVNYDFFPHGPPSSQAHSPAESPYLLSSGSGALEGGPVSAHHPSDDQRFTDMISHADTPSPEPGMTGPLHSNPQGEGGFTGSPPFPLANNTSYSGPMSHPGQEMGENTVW

Measured: binding

B1: Skor1b (protein, UniProt Q1LXZ9 1-751)
chain: MESIPNQLPAGRDSSCSPNSKDLQSYSGPPLKPNQVSETSLYGIPIVSLVIDGQERLCLAQISNTLLKNYSYNEIHNRRVALGITCVQCTPVQLEILRRAGAMPISSRRCGMITKREAERLCKSFLGAHSPPKLPENFAFDVSHECAWGSRGNFIPARYNSSRAKCIKCSFCNMYFSPNKFIFHSHRTPESKYTQPDAANFNSWRRHLKLSDKNSSDDVIHAWEDVKAMFNGGSRKRTLPIGRSESSPSQPPRGQTQGEPSDVPHKTLRCEDDRVNVTMPSSIRSYPVIPVPSKSFGMLQKIPPPLFPHPYGFPAFGLCQKKDDGEVMGEPNKTNLSGVFWPSPKDSAYTSFPMFWPTTGSLAMPTYHHAQPKPPSDVLCARHNELDVSEQSDRSTSTPKDSLLDNERCSSTQSTRNEEDKSGDESRSIEGIPPTSRKISYISAFRPVVKDVESIAKLYGNRGPYSGPRSGYMSPDFLSESSSYRSVSPDVDSVDDPDVDVESHKAHEDEECLQLSVDDRRSPHSLTLAQSEGVKGQDQENTQMHTLNDLHSTNSSETRPSDMESHGNKHTTRFEVYARERDEHVHQMSTSYFGSATTYQRETSVKDVHEEEPSSTVEEMEPKNHQDENNISEERLKEPNDVCADEEAICKDTGNRGSLIEKNIESMAKEELQKQLVEQVELRKKLEREFQNLKDSFQDQMKRELSYREEMVQQLQIVREAHDALHHFSCKMLTPRHCTGTCTFKPPLLPP
binds: all assays above
